Like-named read-outs stand apart in the source and are kept apart here. The name of at least one read-out is uncertain.
Tested on: Escherichia coli AB1157
Settings: E. coli AB1157; for Levofloxacin MPC2: minimal concentration of test compound that decreases the MIC of levofloxacin by 2 fold; for Levofloxacin MPC4: minimal concentration of test compound that decreases the MIC of levofloxacin by 4 fold; for Levofloxacin MPC8: minimal concentration of test compound that decreases the MIC of levofloxacin by 8 fold; for Piperacillin MPC2: minimal concentration of test compound that decreases the MIC of piperacillin by 2 fold; for Piperacillin MPC4: minimal concentration of test compound that decreases the MIC of piperacillin by 4 fold; for Piperacillin MPC8: minimal concentration of test compound that decreases the MIC of piperacillin by 8 fold

| Structure (SMILES) | Levofloxacin MPC2 | Levofloxacin MPC4 | Levofloxacin MPC8 | Piperacillin MPC2 | Piperacillin MPC4 | Piperacillin MPC8 | Levofloxacin MPC8 (listed as 2885) |
| --- | --- | --- | --- | --- | --- | --- | --- |
| COCCN1C(C)CN(c2nc(SCCc3ccc(F)cc3)c(C#N)c3c2COC(C)(C)C3)CC1C (stereo not drawn) [MBX3225] | ≦1.56 μM | 12.5 µM | ≧100 μM | ≦1.56 μM | 12.5 µM | ≧100 μM |  |
| CC1(C)Cc2c(C#N)c([S+]([O-])CCc3ccccc3)nc(N3CCOCC3)c2CO1 (stereo not drawn) [MBX2575] | 100 µM | ≧100 μM | ≧100 μM | ≦1.56 μM | ≧100 μM | ≧100 μM |  |
| COCCN1CCN(c2nc(SCCc3ccccc3F)c(C#N)c3c2COC(C)(C)C3)CC1 [MBX2898] | ≦1.56 μM |  | ≧100 μM | ≦1.56 μM | 6.25 µM | 50 µM |  |
| CC1(C)Cc2c(C#N)c(SCCc3cccc(O)c3)nc(N3CCOCC3)c2CO1 [MBX2894] | ≦1.56 μM | 6.25 µM | ≧100 μM | ≦1.56 μM | 3.13 µM | 12.5 µM |  |
| CC1(C)Cc2c(C#N)c(SCc3ccccn3)nc(N3CCOCC3)c2CO1 [MBX2697] | ≦1.56 μM | ≧100 μM | ≧100 μM | ≧50 μM | 100 µM | ≧100 μM |  |
| COCCN1CCN(c2nc(SCCOc3ccccc3)c(C#N)c3c2COC(C)(C)C3)CC1 [MBX2903] | 3.13 µM | ≧100 μM | ≧100 μM | 3.13 µM |  | ≧100 μM |  |
| CC1CN(c2nc(SCCc3ccc(N(S(C)(=O)=O)S(C)(=O)=O)cc3)c(C#N)c3c2COC(C)(C)C3)CC(C)O1 (stereo not drawn) [MBX3133] | ≦1.56 μM | ≧100 μM | ≧100 μM | 12.5 µM | 25 µM | ≧100 μM |  |
| COCCN1CCN(c2nc(SCCc3c[nH]c4ccccc34)c(C#N)c3c2COC(C)(C)C3)CC1 [MBX2842] | ≦1.56 μM | 12.5 µM | ≧100 μM | ≦1.56 μM | 3.125 µM | 12.5 µM |  |
| C=CC(=O)N1C(C)CN(c2nc(SCCc3ccc(F)cc3)c(C#N)c3c2COC(C)(C)C3)CC1C (stereo not drawn) [MBX3310] | ≦1.56 μM | ≧100 μM | ≧100 μM | ≦1.56 μM | 3.13 µM | 12.5 µM |  |
| CC1(C)Cc2c(C#N)c(SCCc3c[nH]c4ccccc34)nc(N3CCOCC3)c2CO1 [MBX2865] | ≦1.56 μM | 50 µM | ≧100 μM | ≦1.56 μM | ≦1.56 μM | 6.25 µM |  |
| COCCN1CCN(c2nc(SCCc3cccc(F)c3)c(C#N)c3c2COC(C)(C)C3)CC1 [MBX2901] | 3.13 µM | ≧100 μM | ≧100 μM | ≦1.56 μM | 6.25 µM | ≧100 μM |  |
| COc1ccc(CCSc2nc(N3CCCN(C)CC3)c3c(c2C#N)CC(C)(C)OC3)cc1OC [MBX2818] | 3.13 µM | 50 µM | ≧100 μM | 3.13 µM | 6.25 µM | 50 µM |  |
| CC1(C)Cc2c(C#N)c(S(=O)(=O)CCc3ccccc3)nc(N3CCOCC3)c2CO1 [MBX2574] | ≦1.56 μM | ≧100 μM | ≧100 μM | ≦1.56 μM | ≧100 μM | ≧100 μM |  |
| CN1CCCN(c2nc(SCCc3ccc4c(c3)CCO4)c(C#N)c3c2COC(C)(C)C3)CC1 [MBX2817] | 6.25 µM | ≧100 μM | ≧100 μM | 3.125 µM | 25 µM | ≧100 μM |  |
| CN1CCCN(c2nc(SCCc3ccc(Br)cc3)c(C#N)c3c2COC(C)(C)C3)CC1 [MBX2828] | ≦1.56 μM | 25 µM | ≧100 μM | 3.13 µM | 25 µM | ≧100 μM |  |
| CC1CN(c2nc(SCCc3cccc([S+](C)[O-])c3)c(C#N)c3c2COC(C)(C)C3)CC(C)O1 (stereo not drawn) [MBX3098] | ≦1.56 μM | 12.5 µM | ≧100 μM | 3.125 µM | 12.5 µM | 50 µM |  |
| N#Cc1c(S)nc(N2CCOCC2)c2c1CCOC2 [MBX2813] | ≧100 μM | ≧100 μM | ≧100 μM | ≧100 μM | ≧100 μM | ≧100 μM |  |
| COc1ccccc1CCSc1nc(N2CCCN(C)CC2)c2c(c1C#N)CC(C)(C)OC2 [MBX2807] | 6.25 µM | ≧100 μM | ≧100 μM | 6.25 µM | 50 µM | ≧100 μM |  |
| CC1(C)Cc2c(C#N)c(SCCc3ccc(F)cc3)nc(N3CCOCC3)c2CO1 [MBX3193] | ≦1.56 μM | 6.25 µM | ≧100 μM | ≦1.56 μM | 3.13 µM | ≧100 μM |  |
| CC1CN(c2nc(SCCc3ccc(NC(=O)OC(C)(C)C)cc3)c(C#N)c3c2COC(C)(C)C3)CC(C)O1 (stereo not drawn) [MBX3099] | ≦0.195 μM | 0.78 µM | ≧12.5 μM | ≦0.39 μM | ≦0.39 μM | 1.56 µM |  |
| CC1(C)Cc2c(C#N)c(SCCc3cccc(Cl)c3)nc(N3CCOCC3)c2CO1 [MBX2885] | ≦1.56 μM | 3.13 µM |  | ≦1.56 μM | 3.13 µM | ≧100 μM | ≧100 μM |
| COCCN1CCN(c2nc(SCCc3ccccn3)c(C#N)c3c2COC(C)(C)C3)CC1 [MBX2742] | ≦0.2 μM | ≧12.5 μM | ≧12.5 μM | ≦0.2 μM | 3.125 µM | ≧12.5 μM |  |
| CC1CN(c2nc(SCCc3cccnc3)c(C#N)c3c2COC(C)(C)C3)CC(C)O1 (stereo not drawn) [MBX2913] | ≦1.56 μM |  | ≧100 μM | ≦1.56 μM | 3.12 µM | 12.5 µM |  |
| COCCN1C(C)CN(c2nc(SCCc3ccc(N)cc3)c(C#N)c3c2COC(C)(C)C3)CC1C (stereo not drawn) [MBX3249] | ≦1.56 μM | 3.13 µM | 100 µM | ≦1.56 μM | 6.25 µM | 25 µM |  |

Source: patent publication US9540389B2, “Antimicrobial potentiators” (priority 2013, dated 2017)
